The whole screen tested about 310,000 compounds, of which about 17,000 (5.5%) were called active. This list was built around the results that the source calls inconclusive (neither active nor inactive); the mix of calls is not that of the screen. Calls follow the shape of the dose curve; as a rule, active = well fitted inhibition curve with a large enough effect; inconclusive = small, poorly fitted or top-dose-only effect, or effect the other way; inactive = no such curve, though single readings can be large or run the other way. Where the call is inconclusive, the potency comes from a doubtful curve fit.
Target: Nuclear receptor ROR-gamma (Mus musculus) (UniProt P51450)
Assay: qHTS for inhibitors of ROR gamma transcriptional activity; also: nearly all actives have a fitted effect of over 60% in size
Settings: Drosophila S2 Gal4-RORgamma UAS-luciferase reporter, 20 h; activity change, negative = inhibition: at 53.6 µM (top of the series)
How it was run: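 Using a luciferase readout, inhibitors were identified by reduced reporter activity in Drosophila cells coexpressing a copper-inducible Gal4–ROR gamma fusion and UAS-driven Photinus luciferase, incubated 20 hr after 700 uM copper sulfate.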
% is scaled to controls: 0 for no effect and ±100 for the full control effect; potency is read from the fitted curve at half-maximal effect.

Amino acid sequences for entries named in this document (tags omitted). A change or cut given only in a name is not applied to a line headed by its entry.
UniProt P51450: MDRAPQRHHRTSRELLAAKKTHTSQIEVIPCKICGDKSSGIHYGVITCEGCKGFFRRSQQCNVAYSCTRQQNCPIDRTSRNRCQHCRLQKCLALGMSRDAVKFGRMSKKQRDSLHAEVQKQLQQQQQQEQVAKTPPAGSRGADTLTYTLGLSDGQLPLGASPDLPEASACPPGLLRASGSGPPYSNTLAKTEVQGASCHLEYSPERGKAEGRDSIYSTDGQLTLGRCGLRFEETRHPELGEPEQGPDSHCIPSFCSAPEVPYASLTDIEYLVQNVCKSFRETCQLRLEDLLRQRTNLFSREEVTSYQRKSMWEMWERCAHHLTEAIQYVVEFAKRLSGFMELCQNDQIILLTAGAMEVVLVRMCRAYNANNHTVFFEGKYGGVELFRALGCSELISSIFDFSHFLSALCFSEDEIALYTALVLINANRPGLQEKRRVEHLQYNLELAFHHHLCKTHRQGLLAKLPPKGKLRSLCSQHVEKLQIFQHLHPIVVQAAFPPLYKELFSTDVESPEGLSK

SMILES	activity change, negative = inhibition	Potency
COc1ccc2oc(-c3ccccc3)c(C(=O)N3CCOCC3)c2c1	inactive: 13.8%	–
CN(C)C(=O)c1cn(-c2ccccc2)c(=O)c2ccccc12	inactive: -0.864%	–
Cc1cccc(N2C(S)=C(C#N)C(=O)NC23CCCCC3)c1	–	inconclusive: 35.5 µM [inhibitor, single point]
CC(C)C(=O)Nc1ccc(C(=O)NNC(=S)NC(=O)c2ccco2)cc1	–	inconclusive: 17.8 µM [activator, partial curve, poor fit]
O=c1[nH]c(=S)[nH]c2[nH]c(=S)[nH]c12	inactive: 8.76%	–
Cc1csc(NC(=O)c2cnc3ccccc3n2)n1	–	active: 11.2 µM
CCCOC(=S)N/C(=N\S(=O)(=O)c1ccccc1)c1ccccc1	–	inconclusive: 35.5 µM [inhibitor, single point]
COc1cc(OC)cc(-c2cc3nc(C)c(CCC(=O)O)c(C)n3n2)c1	–	active: 0.708 µM
COc1cccc(N2CCN(S(=O)(=O)c3ccc(-c4cnc(C5CC5)o4)cc3)CC2)c1	–	inconclusive: 35.5 µM [inhibitor, single point]
Cc1cc(C)c(NS(=O)(=O)c2ccc(NC(=O)c3cccs3)cc2)c(C)c1	–	inconclusive: 15.8 µM [activator, single point]
Cn1c(COc2ccc(Cl)cc2)nnc1SCC(=O)NC1CCCC1	inactive: -8.41%	–
CN(C)S(=O)(=O)c1cccc(NC(=O)CSc2ncnc3ccccc23)c1	–	inconclusive: 17.8 µM [activator, partial curve]
CCSc1nnc(NC(=O)C(C)(C(F)(F)F)C(F)(F)F)s1	–	inconclusive: 25.1 µM [inhibitor, single point]
CCOc1ccccc1CNC(=O)c1ccc(NC(=O)C2=CSCCO2)cc1	–	inconclusive: 11.2 µM [activator, single point]
O=C(/C=C\c1ccco1)Oc1cccc2cccnc12	–	active: 1.41 µM
CC(C)n1cc(/C=N/Nc2ccc(C(=O)O)cc2)c2ccccc21	–	active: 0.0316 µM
C=CCN1C(=O)S/C(=C/c2ccsc2)C1=O	–	inconclusive: 0.562 µM [activator, single point]
Cc1ccc(NC(=S)NC(=O)Cc2ccccc2)c(O)c1	–	active: 20 µM
CCc1ccc(Nc2nnc(SCC(=O)Nc3ccc(C(=O)O)cc3)s2)cc1	–	active: 5.01 µM
O=C(CCl)N1CCN2C(=O)c3ccccc3C12c1ccc(Cl)cc1 (stereo unspecified)	–	inconclusive: 22.4 µM [inhibitor, single point]
CCOC(=O)c1sc(-c2ccc(OC)cc2)cc1NC(C)=O	–	inconclusive: 20 µM [activator, single point]

Pulled by compound from the list above:
SMILES	activity change, negative = inhibition	Potency
CCCOC(=S)N/C(=N\S(=O)(=O)c1ccccc1)c1ccccc1	–	inconclusive: 35.5 µM [inhibitor, single point]
O=C(/C=C\c1ccco1)Oc1cccc2cccnc12	–	active: 1.41 µM
